Earlier results as cited in US20080003684A1, “DIAGNOSTIC METHOD FOR MYOPATHY” (priority 2006, published 2008).

Test system: plasma ubiquinone
Conditions: clinically acceptable doses; cited from earlier work

SMILES: CC(C)c1c(C(=O)Nc2ccccc2)c(-c2ccccc2)c(-c2ccc(F)cc2)n1CC[C@@H](O)C[C@@H](O)CC(=O)O [atorvastatin]
- levels of plasma ubiquinone: lowered levels of plasma ubiquinone
